From publication PMC4932188
Results are given in words; binding and its absence hold for the method and conditions named. In cells and extracts the contact can be indirect. Some results given as binding are weak or reduced against the parent protein; the word gives no strength.

Protein sequences, listed by entry. Tags and fused reporters are not part of them.
UniProt O75376: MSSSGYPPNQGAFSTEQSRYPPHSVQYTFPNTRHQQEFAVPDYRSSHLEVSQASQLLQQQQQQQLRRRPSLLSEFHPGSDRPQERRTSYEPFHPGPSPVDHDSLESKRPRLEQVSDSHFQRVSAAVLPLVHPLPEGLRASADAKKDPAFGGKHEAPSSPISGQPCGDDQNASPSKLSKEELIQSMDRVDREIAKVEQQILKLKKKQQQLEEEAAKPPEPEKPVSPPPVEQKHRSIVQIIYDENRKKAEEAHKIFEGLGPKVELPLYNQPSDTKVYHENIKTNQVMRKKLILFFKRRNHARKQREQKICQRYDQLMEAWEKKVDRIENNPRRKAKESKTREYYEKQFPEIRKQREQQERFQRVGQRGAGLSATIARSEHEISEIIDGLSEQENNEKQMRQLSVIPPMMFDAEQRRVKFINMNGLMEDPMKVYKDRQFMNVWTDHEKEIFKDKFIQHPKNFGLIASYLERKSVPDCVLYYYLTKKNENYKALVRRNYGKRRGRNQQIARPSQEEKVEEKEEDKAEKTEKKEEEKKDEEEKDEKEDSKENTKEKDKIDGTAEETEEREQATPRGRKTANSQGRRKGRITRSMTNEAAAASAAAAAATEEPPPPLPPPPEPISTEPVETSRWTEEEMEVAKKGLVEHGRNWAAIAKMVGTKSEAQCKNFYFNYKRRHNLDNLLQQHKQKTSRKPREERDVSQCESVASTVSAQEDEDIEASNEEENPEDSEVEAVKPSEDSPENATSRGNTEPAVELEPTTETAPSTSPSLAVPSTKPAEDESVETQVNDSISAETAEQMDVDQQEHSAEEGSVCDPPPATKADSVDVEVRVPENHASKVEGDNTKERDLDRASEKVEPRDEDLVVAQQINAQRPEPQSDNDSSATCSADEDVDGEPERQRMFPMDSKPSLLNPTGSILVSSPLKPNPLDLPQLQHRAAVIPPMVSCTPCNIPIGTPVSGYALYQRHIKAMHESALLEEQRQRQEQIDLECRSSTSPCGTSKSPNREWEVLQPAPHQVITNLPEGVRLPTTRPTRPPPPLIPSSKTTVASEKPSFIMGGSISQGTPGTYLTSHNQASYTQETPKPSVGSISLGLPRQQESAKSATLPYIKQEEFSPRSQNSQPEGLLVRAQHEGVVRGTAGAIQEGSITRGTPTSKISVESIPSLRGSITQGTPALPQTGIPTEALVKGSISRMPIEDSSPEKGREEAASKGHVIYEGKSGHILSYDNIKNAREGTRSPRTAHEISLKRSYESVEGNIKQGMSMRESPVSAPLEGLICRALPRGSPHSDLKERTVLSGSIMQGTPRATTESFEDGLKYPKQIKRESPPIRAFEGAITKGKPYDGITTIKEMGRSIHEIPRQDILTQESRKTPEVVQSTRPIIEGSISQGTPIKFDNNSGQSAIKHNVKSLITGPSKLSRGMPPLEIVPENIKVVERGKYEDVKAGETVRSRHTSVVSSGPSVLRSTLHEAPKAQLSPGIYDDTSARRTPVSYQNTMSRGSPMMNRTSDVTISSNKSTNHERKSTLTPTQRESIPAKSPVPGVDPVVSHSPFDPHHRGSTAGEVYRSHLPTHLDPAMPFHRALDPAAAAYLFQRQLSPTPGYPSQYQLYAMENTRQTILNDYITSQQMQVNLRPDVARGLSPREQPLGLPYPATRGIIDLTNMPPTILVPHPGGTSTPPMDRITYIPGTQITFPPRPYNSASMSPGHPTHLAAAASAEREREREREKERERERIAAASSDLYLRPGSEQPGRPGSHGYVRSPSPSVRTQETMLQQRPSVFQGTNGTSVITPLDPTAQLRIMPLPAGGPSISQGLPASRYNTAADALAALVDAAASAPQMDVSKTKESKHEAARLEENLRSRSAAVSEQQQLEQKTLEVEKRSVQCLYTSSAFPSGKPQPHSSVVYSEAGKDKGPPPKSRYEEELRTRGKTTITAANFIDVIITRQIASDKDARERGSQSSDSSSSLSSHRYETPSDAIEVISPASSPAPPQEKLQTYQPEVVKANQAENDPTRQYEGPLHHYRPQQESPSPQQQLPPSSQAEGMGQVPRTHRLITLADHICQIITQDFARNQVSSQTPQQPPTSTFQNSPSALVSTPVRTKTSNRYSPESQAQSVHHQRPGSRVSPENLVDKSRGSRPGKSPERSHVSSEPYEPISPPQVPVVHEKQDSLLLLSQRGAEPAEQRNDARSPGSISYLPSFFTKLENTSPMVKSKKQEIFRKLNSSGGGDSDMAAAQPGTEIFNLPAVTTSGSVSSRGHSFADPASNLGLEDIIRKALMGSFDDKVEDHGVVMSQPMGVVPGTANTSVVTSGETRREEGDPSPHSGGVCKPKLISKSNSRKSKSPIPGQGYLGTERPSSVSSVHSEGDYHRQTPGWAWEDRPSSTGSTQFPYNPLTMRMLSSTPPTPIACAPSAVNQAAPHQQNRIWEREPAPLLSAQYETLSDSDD
UniProt Q92905: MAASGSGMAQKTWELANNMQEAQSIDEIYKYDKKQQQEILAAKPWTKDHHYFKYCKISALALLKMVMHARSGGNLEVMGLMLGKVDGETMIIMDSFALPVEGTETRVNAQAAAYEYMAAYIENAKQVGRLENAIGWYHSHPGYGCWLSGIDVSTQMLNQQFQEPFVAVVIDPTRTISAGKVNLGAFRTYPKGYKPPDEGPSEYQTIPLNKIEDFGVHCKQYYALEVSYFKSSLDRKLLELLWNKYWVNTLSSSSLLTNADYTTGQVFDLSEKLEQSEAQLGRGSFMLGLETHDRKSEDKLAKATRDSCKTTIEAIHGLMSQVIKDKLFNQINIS
UniProt Q13098: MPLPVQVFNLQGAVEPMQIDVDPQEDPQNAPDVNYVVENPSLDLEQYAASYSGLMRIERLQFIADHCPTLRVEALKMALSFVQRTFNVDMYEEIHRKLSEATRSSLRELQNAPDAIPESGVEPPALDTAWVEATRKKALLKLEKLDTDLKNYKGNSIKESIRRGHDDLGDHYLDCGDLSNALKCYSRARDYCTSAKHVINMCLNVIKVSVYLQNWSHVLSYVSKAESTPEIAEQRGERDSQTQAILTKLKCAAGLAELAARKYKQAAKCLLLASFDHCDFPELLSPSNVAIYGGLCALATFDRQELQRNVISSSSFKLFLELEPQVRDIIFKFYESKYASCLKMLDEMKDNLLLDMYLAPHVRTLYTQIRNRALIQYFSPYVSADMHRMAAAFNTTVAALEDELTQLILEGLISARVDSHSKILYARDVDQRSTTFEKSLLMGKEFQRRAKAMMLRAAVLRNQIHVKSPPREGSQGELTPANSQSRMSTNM
UniProt Q13547: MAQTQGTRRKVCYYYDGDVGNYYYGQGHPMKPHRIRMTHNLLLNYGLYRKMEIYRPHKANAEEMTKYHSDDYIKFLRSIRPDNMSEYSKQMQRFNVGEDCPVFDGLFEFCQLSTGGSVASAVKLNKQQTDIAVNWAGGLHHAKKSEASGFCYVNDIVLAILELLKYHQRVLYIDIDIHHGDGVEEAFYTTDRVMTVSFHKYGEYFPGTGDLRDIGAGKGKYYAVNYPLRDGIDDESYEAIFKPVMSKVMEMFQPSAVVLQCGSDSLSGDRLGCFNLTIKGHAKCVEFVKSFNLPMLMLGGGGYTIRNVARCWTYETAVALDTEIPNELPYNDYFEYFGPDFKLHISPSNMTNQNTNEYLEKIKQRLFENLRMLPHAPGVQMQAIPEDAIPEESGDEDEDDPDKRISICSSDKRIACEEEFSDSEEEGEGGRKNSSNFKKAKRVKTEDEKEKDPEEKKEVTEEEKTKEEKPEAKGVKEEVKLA
UniProt O15379: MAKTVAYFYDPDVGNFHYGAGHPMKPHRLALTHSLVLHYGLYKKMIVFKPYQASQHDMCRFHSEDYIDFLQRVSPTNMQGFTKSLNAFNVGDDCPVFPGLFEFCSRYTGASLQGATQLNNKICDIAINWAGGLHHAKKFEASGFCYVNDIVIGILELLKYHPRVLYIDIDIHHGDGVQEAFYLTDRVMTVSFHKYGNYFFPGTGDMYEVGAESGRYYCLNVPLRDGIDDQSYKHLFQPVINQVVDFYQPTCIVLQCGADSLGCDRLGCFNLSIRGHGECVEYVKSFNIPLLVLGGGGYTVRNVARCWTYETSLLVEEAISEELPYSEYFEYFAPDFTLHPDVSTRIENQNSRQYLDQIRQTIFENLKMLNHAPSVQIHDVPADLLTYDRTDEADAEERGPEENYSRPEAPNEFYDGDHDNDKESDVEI
UniProt P03372: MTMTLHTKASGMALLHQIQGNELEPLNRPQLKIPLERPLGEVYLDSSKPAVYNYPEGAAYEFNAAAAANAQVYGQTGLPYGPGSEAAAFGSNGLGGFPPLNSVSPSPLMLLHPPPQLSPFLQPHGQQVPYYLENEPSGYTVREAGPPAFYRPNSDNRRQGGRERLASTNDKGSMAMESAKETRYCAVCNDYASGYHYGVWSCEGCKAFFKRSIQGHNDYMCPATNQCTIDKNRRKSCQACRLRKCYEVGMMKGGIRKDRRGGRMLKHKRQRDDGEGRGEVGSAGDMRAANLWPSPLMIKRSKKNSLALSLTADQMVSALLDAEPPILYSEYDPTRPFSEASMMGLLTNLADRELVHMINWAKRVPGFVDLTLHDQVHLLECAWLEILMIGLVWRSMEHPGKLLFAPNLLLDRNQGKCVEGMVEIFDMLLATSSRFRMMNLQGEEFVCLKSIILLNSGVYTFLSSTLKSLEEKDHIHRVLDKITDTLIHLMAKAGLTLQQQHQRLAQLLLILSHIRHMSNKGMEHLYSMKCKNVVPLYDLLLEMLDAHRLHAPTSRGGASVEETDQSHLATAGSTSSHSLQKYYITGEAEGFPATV
UniProt Q92831: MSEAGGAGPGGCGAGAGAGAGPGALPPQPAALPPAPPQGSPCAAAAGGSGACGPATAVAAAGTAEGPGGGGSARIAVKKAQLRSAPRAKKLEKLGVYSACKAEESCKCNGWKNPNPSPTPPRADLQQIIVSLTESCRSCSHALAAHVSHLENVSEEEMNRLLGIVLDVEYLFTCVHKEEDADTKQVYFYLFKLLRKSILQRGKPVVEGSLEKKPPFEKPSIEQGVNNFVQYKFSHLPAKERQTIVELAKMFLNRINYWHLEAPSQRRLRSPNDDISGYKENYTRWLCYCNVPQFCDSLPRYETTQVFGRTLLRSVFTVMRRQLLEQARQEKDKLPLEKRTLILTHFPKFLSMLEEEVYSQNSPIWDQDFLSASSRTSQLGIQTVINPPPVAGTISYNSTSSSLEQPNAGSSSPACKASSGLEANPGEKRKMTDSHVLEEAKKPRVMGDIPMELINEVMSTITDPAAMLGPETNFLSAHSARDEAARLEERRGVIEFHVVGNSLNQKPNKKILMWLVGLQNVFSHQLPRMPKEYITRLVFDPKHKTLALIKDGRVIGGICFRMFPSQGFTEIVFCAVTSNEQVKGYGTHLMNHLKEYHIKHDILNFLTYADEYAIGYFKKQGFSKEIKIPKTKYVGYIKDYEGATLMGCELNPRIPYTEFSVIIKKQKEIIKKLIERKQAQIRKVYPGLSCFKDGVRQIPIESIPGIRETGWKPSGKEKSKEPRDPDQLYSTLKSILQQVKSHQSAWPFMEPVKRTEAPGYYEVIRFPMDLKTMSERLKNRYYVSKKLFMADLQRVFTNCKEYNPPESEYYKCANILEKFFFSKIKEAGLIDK

biological target: NCoR (human (endogenous in MCF7)) (UniProt O75376); test: co-IP; reciprocal: immunoprecipitation of endogenous NCoR, western blot for COPS5; NETN buffer (25 mM Tris-HCl pH 8.0, 150 mM NaCl, 1 mM EDTA, 1% Nonidet P-40, 10% glycerol)

Row | binding | Substance
1 | binds | COPS5 (from UniProt Q92905 1-334)

biological target: COPS5 (human (endogenous in MCF7)) (UniProt Q92905); test: co-IP; immunoprecipitation with anti-COPS5 antibodies from parental MCF7 cell lysate, western blot of co-precipitated endogenous proteins; NETN buffer (25 mM Tris-HCl pH 8.0, 150 mM NaCl, 1 mM EDTA, 1% Nonidet P-40, 10% glycerol)

Row | binding | Substance
2 | binds | GPS1/CSN1 (from UniProt Q13098 1-491)
3 | no binding | HDAC1 (from UniProt Q13547 1-482)
4 | binds | HDAC3 (from UniProt O15379 1-428)
5 | binds | NCoR (from UniProt O75376 1-2440)
6 | no binding | Oestrogen receptor α (from UniProt P03372 1-595)
7 | no binding | PCAF (from UniProt Q92831 1-832)
